Reference: patent US20240254095A1, “NMDA Receptor Antagonist and Use Thereof” (priority 2021, published 2024)
Counter-ions that a name gives are not always drawn. Some entries share one result that the patent states for a list of compounds.

Protein sequences, listed by entry. Tags and fused reporters are not part of them. Residues count along the entry.
UniProt Q12879, 23-1464: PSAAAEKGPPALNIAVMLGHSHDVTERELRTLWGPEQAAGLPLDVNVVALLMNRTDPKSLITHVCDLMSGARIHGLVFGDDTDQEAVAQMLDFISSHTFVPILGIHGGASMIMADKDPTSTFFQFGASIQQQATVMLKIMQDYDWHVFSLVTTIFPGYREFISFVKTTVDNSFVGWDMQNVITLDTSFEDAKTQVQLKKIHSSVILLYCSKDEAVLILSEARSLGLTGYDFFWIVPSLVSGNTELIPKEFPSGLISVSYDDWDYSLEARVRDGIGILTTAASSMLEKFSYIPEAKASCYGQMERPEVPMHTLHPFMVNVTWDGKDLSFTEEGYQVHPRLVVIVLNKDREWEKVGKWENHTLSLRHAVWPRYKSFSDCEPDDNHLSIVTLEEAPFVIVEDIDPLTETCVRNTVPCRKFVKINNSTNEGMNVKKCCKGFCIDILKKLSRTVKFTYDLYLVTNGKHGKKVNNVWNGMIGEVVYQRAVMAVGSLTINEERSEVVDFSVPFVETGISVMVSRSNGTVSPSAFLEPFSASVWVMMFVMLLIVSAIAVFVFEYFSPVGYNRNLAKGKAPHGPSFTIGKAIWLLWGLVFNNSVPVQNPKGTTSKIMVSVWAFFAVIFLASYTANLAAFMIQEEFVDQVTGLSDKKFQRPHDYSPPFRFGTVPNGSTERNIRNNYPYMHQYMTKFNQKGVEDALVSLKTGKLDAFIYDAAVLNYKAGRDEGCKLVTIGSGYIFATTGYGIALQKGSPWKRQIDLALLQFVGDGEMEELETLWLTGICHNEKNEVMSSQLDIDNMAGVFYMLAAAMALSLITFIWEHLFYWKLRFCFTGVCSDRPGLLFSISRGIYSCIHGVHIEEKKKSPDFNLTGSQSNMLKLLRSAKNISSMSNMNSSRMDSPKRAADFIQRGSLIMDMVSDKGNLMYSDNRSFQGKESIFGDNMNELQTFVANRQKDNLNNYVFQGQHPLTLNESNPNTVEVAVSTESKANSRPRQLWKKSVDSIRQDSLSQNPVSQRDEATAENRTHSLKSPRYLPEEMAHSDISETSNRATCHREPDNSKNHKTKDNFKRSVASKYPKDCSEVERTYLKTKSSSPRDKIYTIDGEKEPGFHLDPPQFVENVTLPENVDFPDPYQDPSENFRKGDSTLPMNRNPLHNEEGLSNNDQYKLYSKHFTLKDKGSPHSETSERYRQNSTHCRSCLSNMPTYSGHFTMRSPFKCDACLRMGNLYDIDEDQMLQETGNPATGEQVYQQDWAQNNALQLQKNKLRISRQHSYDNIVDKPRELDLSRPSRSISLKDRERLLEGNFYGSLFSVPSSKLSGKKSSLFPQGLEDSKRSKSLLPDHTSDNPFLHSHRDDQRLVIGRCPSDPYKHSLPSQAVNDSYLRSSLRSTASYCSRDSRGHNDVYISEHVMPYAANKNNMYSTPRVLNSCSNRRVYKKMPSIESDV

These compounds were tested against T1, human NMDA receptors GluN1 and GluN2A subunits (GluN2A-containing NMDAR) (Homo sapiens, UniProt Q05586+Q12879). Conditions: ketamine and compound at 10 μM; ketamine positive control.
T1 construct: expressed in transfected cells; host or cells: HEK293 cells, transient liposome transfection of TRE-GluN1-GluN2A, tTA and pCAG-EGFP
Assay type: cell-based
Method: On the day before transfection, HEK293 cells were seeded in a 24-well plate with a 10 mm glass sheet, which was coated with polylysine in advance to increase the adhesion capacity of the cells. The plate was added with DMEM medium containing 10% FBS and incubated at 37° C., in 5% CO2 incubator. When the cell fusion reached 60%-70% after 18-24 hours, the plasmid cDNAs containing TRE-GluN1-GluN2A of human GluN1 and GluN2A, tTA, and pCAG-EGFP were transfected into HEK293 by liposome transfection (TRE-GluN1-GluN2A:tTA:pCAG-EGFP is 0.2 μg:0.2 μg:0.02 μg). Before transfection, anew DMEM medium was changed and added with 1 μg/mL Dox (doxycycline) to induce stable expression in the medium, and added with 100 μM D-APV and 10 mM MgCl2 to avoid cell excitatory toxicity caused by NMDAR overexpression. Cells with green fluorescence were selected for electrophysiological recording after transfection for about 24 h.
A glass plate seeded with HEK293 cells was placed in a recording bath and perfused with the extracellular fluid at a rate of 4 mL/min (NaCl 140 mM, KCl 2.8 mM, HEPES 10 mM, CaCl2 1 mM, glycine 0.1 mM, pH 7.2). The channels of the ALA-VC^3 eight-channel pressure perfusion system were filled with extracellular fluid for washing, extracellular fluid containing glutamic acid (100 μM), and extracellular fluid containing glutamic acid and compound to be tested, respectively, with a drop rate of about 1 drop/sec and 10 μL/drop. HEK293 cells with moderate green fluorescence intensity and good adhesion were selected under a fluorescence microscope for recording. The microglass tube of the perfusion system was placed about ten cells away from the cells to be recorded, and the drug was sprayed to the cell surface under the pressure of air (0.02 MPa). The glass electrode was prepared by drawing with a microelectrode drawing instrument with a resistance of 4-6 MΩ and filled with electrode liquid (CsCl 125 mM, HEPES 10 mM, EGTA 11 mM). The microelectrode manipulator was used to slowly push the glass electrode towards the cells. The electrode was attached to the cell membranes and applied with negative pressure, so that a high-resistance seal of more than 1 GΩ was formed between the electrode tip and the cell membrane, and then negative pressure was given to suck through the cell membrane to form a whole-cell recording mode. After the formation of whole-cell recording mode, the cell membrane potential was clamped at −70 mV. The extracellular fluid containing 100 μM glutamic acid, the extracellular fluid containing 100 μM glutamic acid and the compound to be tested, and the extracellular fluid were sprayed to the cell membrane surface sequentially through the perfusion system for 10 s, 20 s, and 10 s to record the NMDA receptor-mediated current and evaluate the inhibitory effect of the compound on GluN2A-containing NMDAR. The experimental process was controlled by pCLAMP 10.6, and the Digidata 1440A digital-to-analog converter was used to complete the generation of stimulus signal and the acquisition of feedback signal.
The ordinate in the figure is the normalized current ratio, which represents the ratio of the current mediated by NMDAR after administration of ketamine and the compound at a concentration of 10 μM to the current mediated by NMDAR before administration. […] Ketamine was used as a positive control.
The inhibitory percentages of the compound according to the present disclosure on NMDAR-mediated current=[…]/NMDAR mediated-current before administration*100%.

SMILES	inhibitory effect on NMDAR-mediated current compared with ketamine (normalized current ratio, FIGS. 1 and 2)
CCC1CCC2OCCNC2(c2ccccc2)C1 (stereo not shown) [Compound 8, 6-ethyl-4a-phenyloctahydro-2H-benzo[b][1,4]oxazine formate]	different degrees of inhibitory effects
Clc1cccc(C23CCCCC2OCCN3)c1 (racemic) [Compound 9, 4a-(3-chlorophenyl)octahydro-2H-benzo[b][1,4]oxazine formate]	stronger inhibitory effects
FC(F)(F)Oc1cccc(C23CCCCC2OCCN3)c1 (stereo not shown) [Compound 22, 4a-(3-(trifluoromethoxy)phenyl)octahydro-2H-benzo[b][1,4]oxazine hydrochloride]	different degrees of inhibitory effects
Cc1ccc(C23CCCCC2OCCN3)cc1 (stereo not shown) [Compound 14, 4a-(4-methylphenyl)octahydro-2H-benzo[b][1,4]oxazine formate]	different degrees of inhibitory effects
Fc1ccc(C23CCCCC2OCCN3)cc1 (stereo not shown) [Compound 4, 4a-(4-fluorophenyl)octahydro-2H-benzo[b][1,4]oxazine formate]	stronger inhibitory effects
Cc1cccc(C)c1C12CCCCC1OCCN2 (stereo not shown) [Compound 24, 4a-(2,6-dimethylphenyl)octahydro-2H-benzo[b][1,4]oxazine hydrochloride]	different degrees of inhibitory effects
CC1CCC2OCCNC2(c2ccccc2)C1 (stereo not shown) [Compound 7, 6-methyl-4a-phenyloctahydro-2H-benzo[b][1,4]oxazine formate]	stronger inhibitory effects
CC1CCC2(c3ccccc3)NCCOC2C1 (stereo not shown) [Compound 18, 7-methyl-4a-phenyloctahydro-2H-benzo[b][1,4]oxazine formate]	different degrees of inhibitory effects
CC1CCCC2OCCNC12c1ccccc1 (stereo not shown) [Compound 17, 5-methyl-4a-phenyloctahydro-2H-benzo[b][1,4]oxazine formate]	stronger inhibitory effects
Cc1ccc(C)c(C23CCCCC2OCCN3)c1 (stereo not shown) [Compound 28, 4a-(2,5-dimethylphenyl)octahydro-2H-benzo[b][1,4]oxazine hydrochloride]	stronger inhibitory effects
COc1ccccc1C12CCCCC1OCCN2 (stereo not shown) [Compound 2, 4a-(2-methoxyphenyl)octahydro-2H-benzo[b][1,4]oxazine hydrochloride]	different degrees of inhibitory effects
Fc1cccc(C23CCCCC2OCCN3)c1 (stereo not shown) [Compound 3, 4a-(3-fluorophenyl)octahydro-2H-benzo[b][1,4]oxazine hydrochloride]	different degrees of inhibitory effects
COc1cccc(C23CCCCC2OCCN3)c1 (stereo not shown) [Compound 21, 4a-(3-methoxyphenyl)octahydro-2H-benzo[b][1,4]oxazine hydrochloride]	different degrees of inhibitory effects
Fc1cccc(C23CCCCC2OCCN3)c1F (stereo not shown) [Compound 5, 4a-(2,3-difluorophenyl)octahydro-2H-benzo[b][1,4]oxazine formate]	different degrees of inhibitory effects
Clc1cccc(C23CCCCC2OCCN3)c1Cl (stereo not shown) [Compound 26, 4a-(2,3-dichlorophenyl)octahydro-2H-benzo[b][1,4]oxazine hydrochloride]	stronger inhibitory effects
CC(C)c1ccccc1C12CCCCC1OCCN2 (stereo not shown) [Compound 27, 4a-(2-isopropylphenyl)octahydro-2H-benzo[b][1,4]oxazine hydrochloride]	stronger inhibitory effects
Clc1ccccc1C12CCCCC1OCCN2 (racemic) [Compound 11, 4a-(2-chlorophenyl)octahydro-2H-benzo[b][1,4]oxazine formate]	stronger inhibitory effects
Cc1cccc(C23CCCCC2OCCN3)c1 (stereo not shown) [Compound 10, 4a-(3-methylphenyl)octahydro-2H-benzo[b][1,4]oxazine formate]	stronger inhibitory effects
Cc1ccccc1C12CCCCC1OCCN2 (stereo not shown) [Compound 12, 4a-(2-methylphenyl)octahydro-2H-benzo[b][1,4]oxazine formate]	different degrees of inhibitory effects
